Our source for the binding values is PMC10216351.

Results are given in words; binding and its absence hold for the method and conditions named. In cells and extracts the contact can be indirect. Here binding means that the protein was enriched with, or labelled near, the bait; the list need not be complete.

This test concerns the target T1, CERS6 (ceramide synthase 6), endogenous (human (endogenous in A549)) (UniProt Q6ZMG9).
T1 sequence: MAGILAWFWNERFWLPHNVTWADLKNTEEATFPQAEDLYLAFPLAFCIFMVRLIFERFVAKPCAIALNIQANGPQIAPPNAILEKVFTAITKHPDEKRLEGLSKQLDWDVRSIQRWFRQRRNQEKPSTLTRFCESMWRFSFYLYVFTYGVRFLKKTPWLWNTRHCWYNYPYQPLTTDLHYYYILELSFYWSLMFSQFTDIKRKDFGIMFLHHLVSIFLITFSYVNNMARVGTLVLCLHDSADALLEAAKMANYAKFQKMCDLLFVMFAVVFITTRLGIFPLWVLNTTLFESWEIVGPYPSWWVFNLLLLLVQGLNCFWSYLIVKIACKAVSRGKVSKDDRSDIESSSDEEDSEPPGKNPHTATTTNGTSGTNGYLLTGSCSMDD
Description: affinity purification with mass spectrometry; IP with anti-CERS6 antibody against anti-IgG control, Dynabeads Co-Immunoprecipitation Kit, A549 cells; SDS-PAGE, in-gel digestion, LC-MS/MS; performed twice.

B1: LASP1 (LIM and SH3 domain protein 1), endogenous (protein, UniProt Q14847 1-261)
chain: MNPNCARCGKIVYPTEKVNCLDKFWHKACFHCETCKMTLNMKNYKGYEKKPYCNAHYPKQSFTMVADTPENLRLKQQSELQSQVRYKEEFEKNKGKGFSVVADTPELQRIKKTQDQISNIKYHEEFEKSRMGPSGGEGMEPERRDSQDGSSYRRPLEQQQPHHIPTSAPVYQQPQQQPVAQSYGGYKEPAAPVSIQRSAPGGGGKRYRAVYDYSAADEDEVSFQDGDTIVNVQQIDDGWMYGTVERTGDTGMLPANYVEAI
Consider B1, for which the binding result is listed as “binds”.

B2: CERS5, endogenous (protein, UniProt Q8N5B7 1-392)
chain: MATAAQGPLSLLWGWLWSERFWLPENVSWADLEGPADGYGYPRGRHILSVFPLAAGIFFVRLLFERFIAKPCALCIGIEDSGPYQAQPNAILEKVFISITKYPDKKRLEGLSKQLDWNVRKIQCWFRHRRNQDKPPTLTKFCESMWRFTFYLCIFCYGIRFLWSSPWFWDIRQCWHNYPFQPLSSGLYHYYIMELAFYWSLMFSQFTDIKRKDFLIMFVHHLVTIGLISFSYINNMVRVGTLIMCLHDVSDFLLEAAKLANYAKYQRLCDTLFVIFSAVFMVTRLGIYPFWILNTTLFESWEIIGPYASWWLLNGLLLTLQLLHVIWSYLIARIALKALIRGKVSKDDRSDVESSSEEEDVTTCTKSPCDSSSSNGANRVNGHMGGSYWAEE
Consider B2, for which the binding result is reported as “binds”.
